# Measurements published in the supplement of paper PMC12889115.
# The list shows a part of the results. Values are raw readings; no control value is given beside them.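 First-pass screen: polymyxin B was added at a level that permeabilizes the Salmonella outer membrane while sparing the inner membrane. DMSO wells, with and without polymyxin B, defined maximum growth. Because plates differed from one another, each plate's data were ranked separately and the compounds with the lowest OD600 were carried forward as hits.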
# System: Salmonella enterica serovar Typhimurium SL1344
# Test: bacterial growth OD600 after 18 h with compound and polymyxin B; higher = more bacterial growth (less inhibition)
# Details: 50 µM, Mueller-Hinton broth
Compound,bacterial growth OD600 (polymyxin B 0.75 µg/mL),bacterial growth OD600 (polymyxin B 1 µg/mL)
CN(CC1CCCCO1)C(=O)CCC1(Cc2ccc3ccccc3c2)CCC(=O)N1 (centres undefined),0.881,–
O=C(CCC1CCN(C(=O)C2CCOCC2)CC1)NCc1cccc(C(F)(F)F)c1,–,0.937
CCN(CC)C(=O)c1cnn(-c2nccc(-c3ccc4c(c3)OCO4)n2)c1C,0.762,–
CN(CCN1CCOCC1)C(=O)CC(c1ccccc1)c1cccc(Cl)c1 (centres undefined),–,0.652
COC(C(=O)NCc1c(C)ncc2c1CCN(C(=O)c1ccc3c(c1)OCO3)C2)c1ccccc1 (centres undefined),0.881,–
CCCCN(C)C(=O)c1coc(COc2cccc3cccnc23)n1,0.792,–
COCC(=O)N(C)CC1CCCN(CCc2ccc(F)cc2)C1 (centres undefined),–,0.86
O=C(c1cnn(-c2ncc3c(n2)-c2ccccc2CC3)c1C1CC1)N1CCN(C2CCCCC2)CC1,0.744,–
O=C(c1nc2sccn2c1CNCC1(c2ccccc2)CCOCC1)N1CCCC1,–,1.06
